# Results of single-concentration screens

Mtb glucose medium: 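Phenotypic screen: M. tuberculosis growth, glucose 7H9 medium, 3 days; the read-out is not stated. Tested at 500 µM. Higher reads as more growth inhibition (inferred: compounds with an IC50 in retests scored well above the rest). Of about 18,000 compounds tested this way, about 1,400 (7.9%) reached 50% or more in at least one test.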
Mtb cholesterol medium: 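Whole-cell growth test on Mycobacterium tuberculosis, read after 4 days in a medium based on cholesterol and the lipid DPPC; the read-out is not stated. Compounds at 500 µM. The record gives no direction; compounds that gave an IC50 in retests scored well above the rest, so higher reads as more growth inhibition. About 18,000 compounds were tested under these conditions; 5% (about 900) showed 50% or more at least once.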

Results are given as percent effect.
How 0% and 100% were set is not recorded. Most values in the screen are low, and negative values occur.
The compounds are a random part of those screened.

structure,Mtb glucose medium,Mtb cholesterol medium
CC(C)CCN1CCN(C(=O)N(C)C)CC1,-4.412%,-4.813%
c1cc2sccc2c(N2CCNCC2)n1,42.1%,11.94%
Cc1nn(CC(=O)NCCc2c[nH]cn2)c(C)c1C,-4.34%,-20.28%
Cc1nc(O)c(C(=O)NCc2ncc[nH]2)cc1Br,-0.9838%,-8.278%
COCc1ccc(C(=O)Nc2cccn(C)c2=O)cc1,30.23%,6.671%
CC(=O)NCCNS(=O)(=O)c1cc(C)ccc1C,31.1%,21.01%
CC/C(C)=C/CCN1CCC2(CCCNC2=O)C1 (centres unmarked),44.17%,5.783%
O=C1NCCN(Cc2nnsc2Cl)C1c1cccs1 (centres unmarked),15.09%,8.538%
CN(C)c1cc(CNC(=O)NCC2CCOC2)ccn1 (centres unmarked),0.01208%,-7.371%
NCCNS(=O)(=O)c1ccc(-c2ccccc2)cc1,82.09%,78.57%
N[C@@H]1CC[C@H](C(=O)NCCOCc2ccccc2)C1,68.95%,32.9%
CCCC(N)C(=O)N1CCN(C2CCCCC2)CC1 (centres unmarked),-4.281%,-9.72%
CCOC(=O)c1cnc(SC2CCOC2=O)nc1N (centres unmarked),-3.292%,-4.9%
NC(=O)NCC1CCCCN1 (centres unmarked),7.982%,11.84%
CC(C)C(NC(=O)Cn1cnnn1)c1cccs1 (centres unmarked),16.23%,-7.108%
COC(=O)CN1CCCN(C2CCCC2)CC1,-5.395%,7.483%
Cc1nc2cc(F)ccc2cc1C(=O)N(C)C,0.7271%,-0.9329%
CC(C)NC(=O)CNC(C)CC(=O)Nc1ccccc1 (centres unmarked),-9.267%,-3.264%
CS(=O)(=O)c1cc(Cl)cc(CN)c1,1.241%,-14.14%
CC1CCN(CCNC(=O)c2ccoc2)CC1,0.206%,4.991%
CN1CCN(C(=O)Cc2ccc3c(c2)CCO3)CC1,28.1%,11.12%
Cc1cc(C(=O)Nc2ccnn2C(C)C)on1,9.074%,4.59%
Cc1nnc(CN(C)[C@@H]2CNC[C@H]2O)o1,9.263%,-0.4801%
NCC(O)c1ccc(F)c(F)c1 (centres unmarked),36.11%,15.62%
CC(C)C[C@H](N)C(=O)NCCN(C)C,-7.724%,-12.97%
CCC(C)(C)NCC(=O)Nc1ccc2c(c1)OCCO2,23.63%,28.31%
NC1(c2ccccc2F)CC1,-14.9%,-7.905%
CN1CCCN(C(=O)COc2ccc(C#N)cc2)CC1,6.243%,1.734%
CC(CO)CNC(=O)c1cnc(OC(C)C)c(Cl)c1 (centres unmarked),38.84%,33.52%
CCNC(=O)c1nnsc1-c1ccc(C)cc1,40.97%,41.66%
CNC(=O)C(C)S(=O)(=O)Cc1cccc(C(F)(F)F)c1 (centres unmarked),15.3%,8.191%
CCC1(CNCc2ccc3c(c2)OCO3)COC1,11.6%,10.65%
O=C(NCC1CNCCOC1)NC1CCCCC1 (centres unmarked),1.881%,15.12%
CCCn1nnnc1NCc1ccc2c(c1)OCO2,45.92%,22.19%
O=C(c1ccc(F)cc1)N1CCCNCC1,-2.839%,-12.35%
CC(=O)N1CCN(c2ccc(CO)cc2)CC1,-8.077%,7.644%
Nc1ncc(C(F)F)cc1Br,1.528%,-6.92%
CCn1nc(C)cc1C(=O)NC(C)c1nc(C)c[nH]1 (centres unmarked),6.612%,-0.09466%
Cc1occc1SCC1=Nc2ccccc2S(=O)(=O)N1,18.56%,7.181%
CN1CCN(CC(=O)Nc2ccccc2)CC1,9.137%,9.432%
CN(Cc1cc(Br)cs1)C(=O)c1ccn(C)c(=O)c1,37.54%,3.302%
CC1(CN2CCOCC2)CCNCC1,-2.534%,1.989%
CC(C)(C)C[C@@H](N)C(=O)NCCCc1csc(N)n1,19.83%,8.594%
CCc1ccccc1OCCN(C)CC(O)CO (centres unmarked),40.59%,13.03%
CN(Cc1cccnc1)CC1CCCNC1 (centres unmarked),40.34%,17.56%
COCc1ccc(C(=O)N2CCN3CCCCC3C2)s1 (centres unmarked),45.35%,36.79%
O=C(NCCSC(F)(F)F)Nc1cccc2[nH]nnc12,82.55%,73.95%
NCc1ccc(CO)cc1,3.408%,-0.1817%
N#Cc1cccc2c1NC(=O)C2,-10.1%,-37.13%
Cc1ccc2cccc(OCCN)c2n1,-11.86%,-3.289%
NC(=O)C1CNCCN1C1CC1 (centres unmarked),-2.593%,-3.799%
COc1cc(CNC(=O)N[C@H](CO)C(C)C)ccc1C,46.2%,11.69%
N[C@H]1C[C@@H](c2cc(NCCc3ccco3)ncn2)C1,34.99%,-3.615%
Cn1cc(C(O)CNC(=O)CC2CCCC2)cn1 (centres unmarked),-6.835%,-21.63%
O=C(Nc1ccc(F)c(Cl)c1)N1CCC(O)C1 (centres unmarked),72.08%,64.62%
Cc1ccc(CN2CCC(N)C2=O)cc1 (centres unmarked),30.18%,15.01%
CN1CCCN(C(=O)COc2cccc(Cl)c2)CC1,52.4%,23.58%
NCCNS(=O)(=O)c1ccccc1-c1ccccc1,29.04%,-5.72%
O=C(Cc1ccc(O)c(Cl)c1)N[C@@H]1CS(=O)(=O)C[C@H]1O,5.555%,2.787%
NC1CCN(c2ccccc2OC(F)F)C1 (centres unmarked),75.88%,38.68%
CC(C#N)N1CCC(C(=O)NCc2cccs2)CC1 (centres unmarked),28.43%,11.49%
O=C(c1ncc(F)cc1F)N1CC[C@H]2CC[C@@H](C1)N2,14.84%,4.737%
CC(C)NC(=O)Cn1c(S(C)(=O)=O)nc2ccccc21,-7.342%,-13.61%
COc1ccc(C(=O)N2CCC(N)CC2)cc1OC,24.19%,6.147%
CC(C)C1NCCNC1=O (centres unmarked),7.923%,1.441%
CN(C)c1ccc(CN2CCS(=O)(=O)CC2)cn1,9.472%,3.19%
COc1ccc(CSc2nnc(O)[nH]2)cc1Cl,26.76%,15.45%
COC(=O)c1ccc(CSc2n[nH]c(C)n2)o1,63.97%,69.04%
CCS(=O)(=O)Nc1ccccc1F,2.871%,-8.266%
COc1ccc(CN2CCCCC2C)cn1 (centres unmarked),3.139%,-4.669%
CC(C)=CCNC(C(=O)N1CCOCC1)C(C)C (centres unmarked),7.662%,-10.5%
OC(c1ccccc1)c1nccs1 (centres unmarked),18.27%,13.59%
CC(COCC(F)(F)F)NC(=O)c1cccnc1O (centres unmarked),18.66%,5.218%
CC(CC(=O)NCCCS(N)(=O)=O)c1cccc(F)c1 (centres unmarked),3.926%,6.875%
CNC(=O)CCN1CC(Oc2ccc(C)cc2)C1,13.41%,4.575%
CCCNC(=O)c1ccc2c(c1)NC(=O)C(C)S2 (centres unmarked),60.43%,36.99%
CC1CN(C(=O)NCc2ccc(Cl)s2)CCS(=O)(=O)C1 (centres unmarked),34.06%,5.3%
CN(CC1CCC1)C(=O)CCc1ccccn1,1.682%,-1.755%

For reference, 4 entries once more:

| structure | Mtb glucose medium | Mtb cholesterol medium |
|---|---|---|
| `NCc1ccc(CO)cc1` | 3.408% | -0.1817% |
| `CN(C)c1ccc(CN2CCS(=O)(=O)CC2)cn1` | 9.472% | 3.19% |
| `Cn1cc(C(O)CNC(=O)CC2CCCC2)cn1` (centres unmarked) | -6.835% | -21.63% |
| `CN(Cc1cccnc1)CC1CCCNC1` (centres unmarked) | 40.34% | 17.56% |

Data taken from ChEMBL document CHEMBL3988442, “University of Dundee, Small-Polar-MMV Screening Library” (2021).